In patent US20090221680:

biological target: prothrombin (Homo sapiens) (UniProt P00734); assay: filter binding; conditions: 50 nM prothrombin; purified native protein; protein details: Athens Research; single-stranded DNA

In order of rising binding signal:
1. TCCCGCTCGATTTCGAAGAATGGTTGGTTTGGGTGGCTGAGGATCGATC [AMX(398)_B11]  2.08 % bound
2. TCCCATCGAGCCGGGGATGGTTTGTTGGAGGGGTGGCTGAGGATCGATC [AMX(398)_B9]  2.16 % bound
3. TCCCAGGACCGATCTTGGTATTGTTGGTGGGGGTGGCTGAGGATCGATC [AMX(399)_G1]  2.44 % bound
4. TCCCGGTCGAGACTCGGAGTATGGCAGGGTGGGTGGCTGAGGATCGATC [AMX(398)_E2]  2.62 % bound
5. TCCCGACTTTAGATCCGTGTTGGATGGCCTGGGTGGCTGAGGATCGATC [AMX(399)_H2]  2.73 % bound
6. TCCCATGTGTTAGATCCGTGTGGTTGGACTGGGTGGCTGAGGATCGATC [AMX(398)_C3]  3.04 % bound
7. TCCCGGAGATCCGAGGTGTTTTATTGGTTTGGGTGGCTGAGGATCGATC [AMX(399)_H9]  3.16 % bound
8. TCCCGAGAGATTCAAAAGGGACTGGGCGGTTGGGTGGCTGAGGATCGATC [AMX(399)_H4]  3.66 % bound
9. TCCCATCGATCCGCGGTACTTTCGTGGCTTGGGTGGCTGAGGATCGATC [AMX(399)_E8]  4.37 % bound

test system: thrombin (alpha-thrombin) (Homo sapiens); assay: filter binding; conditions: 10 nM thrombin, DPBS Ca Mg, BSA; purified native protein; protein details: Enzyme Research Labs; single-stranded DNA

Work on “TCCCACGCATCGATCCTATATGGGTGGCATGGGGTGGCTGAGGATCGATC [AMX(395)_A5]” yielded a binding signal of 3.29 % bound.

same assay, conditions: 10 nM thrombin; purified native protein; protein details: Enzyme Research Labs; single-stranded DNA

In order of rising binding signal:
1. TCCCGCAGTATCGGTCTGGTTGGTTGGATGGGGTGGCTGAGGATCGATC [AMX(395)_H10]  2.8 % bound
2. TCCCATCGAGCCGGGGATGGTTTGTTGGAGGGGTGGCTGAGGATCGATC [AMX(398)_B9]  3.03 % bound
3. TCCCAAGCGATCTGTAAGGGATGGGGTTGCGGGTGGCTGAGGATCGATC [AMX(395)_C3]  3.57 % bound
4. TCCCGGTCGAGACTCGGAGTATGGCAGGGTGGGTGGCTGAGGATCGATC [AMX(398)_E2]  3.84 % bound
5. TCCCGGAGATCCGAGGTGTTTTATTGGTTTGGGTGGCTGAGGATCGATC [AMX(399)_H9]  3.86 % bound
6. TCCCATCGATCCGCGGTACTTTCGTGGCTTGGGTGGCTGAGGATCGATC [AMX(399)_E8]  4.31 % bound
7. TCCCAGGACCGATCTTGGTATTGTTGGTGGGGGTGGCTGAGGATCGATC [AMX(399)_G1]  4.89 % bound

same assay, conditions: 2'-OMe A17, rest DNA; NB, non binder; purified native protein; protein details: Enzyme Research Labs; synthetic backbone; variant of ARC2169

“ACTGCCTAGGTTGGGTAGGGTGGTGGCAGT [ARC2629]”: no binding.

same assay, conditions: 2'-OMe G15, rest DNA; NB, non binder; purified native protein; protein details: Enzyme Research Labs; synthetic backbone; variant of ARC2169

“ACTGCCTAGGTTGGGTAGGGTGGTGGCAGT [ARC2627]”: no binding.

same assay, conditions: 2'-OMe G20, rest DNA; NB, non binder; purified native protein; protein details: Enzyme Research Labs; synthetic backbone; variant of ARC2169

“ACTGCCTAGGTTGGGTAGGGTGGTGGCAGT [ARC2632]”: no binding.

test system: thrombin (endogenous, clotting assay in plasma or whole blood) (Homo sapiens); assay: inhibition of the protein; conditions: PT at 10 uM aptamer, baseline ~13 s; protein in an extract; single-stranded DNA

“TCCCATCGATCTGGGGTAATTTACTGGGTCGGGTGGCTGAGGATCGATC [AMX(453)_A6]” showed a functional effect of the aptamer of 12.8 s.

same assay, conditions: PT at 10 uM, no prolongation (background about 13 s); protein in an extract; single-stranded DNA

Sequence “TCCCGTAATCGAGCCTGGTATTGTTGGTCTGGGTGGCTGAGGATCGATC [AMX(398)_A4]” has a functional effect of the aptamer of 11 s.

same assay, conditions: PT at 10 uM, no prolongation; clone printed as C9 for SEQ 138; protein in an extract; single-stranded DNA

“TCCCGTCGATCAGGGGTAATTTGCTGGTGGTGGGTGGCTGAGGATCGATC [AMX(399)_C8]” gave a functional effect of the aptamer of 10.7 s.

same assay, conditions: PT at 10 uM, no prolongation; protein in an extract; single-stranded DNA

In order of rising functional effect of the aptamer:
1. TCCCGTTCGAGTCCTGGTGTTTTATTGGCCTGGGTGGCTGAGGATCGATC [AMX(399)_D5]  10.5 s
2. TCCCATCGATCTGTGGTGGTTTTGTGGTTTGGGTGGCTGAGGATCGATC [AMX(399)_D10]  10.7 s
3. TCCCGGATCTGTGGTAGGTTTGTTGGGTTGGGTGGCTGAGGATCGATC [AMX(398)_E12]  10.7 s
4. TCCCTGTCGTTCCGTGGTGTTTTTATGGGCTGGGTGGCTGAGGATCGATC [AMX(398)_G6]  10.7 s
5. TCCCACGATCCGGGGTGTCTTTCGTGGGCTGGGTGGCTGAGGATCGATC [AMX(399)_E1]  10.8 s
6. TCCCGATCGTAGTCCTGGTATTGTTGGTCTGGGTGGCTGAGGATCGATC [AMX(398)_F12]  10.8 s
7. TCCCAATCGGTCCTGGTAATATATTGGTCGGGGTGGCTGAGGATCGATC [AMX(399)_H3]  10.9 s
8. TCCCGGTTGTCGATTCTGGTATTGTTGGGCTGGGTGGCTGAGGATCGATC [AMX(399)_H7]  10.9 s
9. TCCCGTAATCGAGCTTGGTATTGTTGGTCTGGGTGGCTGAGGATCGATC [AMX(399)_B3]  10.9 s
10. TCTCATTCGTTCCGGGGTATTTAGTGGGTCGGGTGGCTGAGGATCGATC [AMX(399)_C10]  10.9 s
11. TCCCGTAATCGAGCCTGGTATTGTTGGTCTGGGTGGCTGAGGATCGATC [AMX(398)_B2]  11 s
12. TCCCTAGATCGGGTCCTGGTAGTGTTTCTGGGTGGCTGAGGATCGATC [AMX(399)_F5]  11 s
13. TCCCTATGGATCCGGGGTACGTTAGTTCTGGGTGGCTGAGGATCGATC [AMX(398)_H6]  11 s
14. TCCCATCGATCAGTGGTGGCTTGGCTGGTTTGGGTGGCTGAGGATCGATC [AMX(399)_G6]  11.1 s
15. TCCCGAGTGATCCGGGGTGTTTTTTTGGGTTGGGTGGCTGAGGATCGATC [AMX(398)_E3]  11.1 s
16. TCCCATCGGTCCGGGGTAATTTACTGGGTCGGGTGGCTGAGGATCGATC [AMX(398)_A8]  11.2 s
17. TCCCTATGGATTCGGGGTACGTTAGTTCTGGGTGGCTGAGGATCGATC [AMX(399)_F11]  11.2 s
18. TCCCTATCGATTGCTCCTAGGATGGGTAGGGTGGTGGCTGAGGATCGATC [AMX(399)_A2]  11.3 s
19. TCCTGTCGATCGGTACGTTTTCGTTTCTGGGTGGCTGAGGATCGATC [AMX(398)_C11]  11.3 s
20. TCCCAACGATCTGTGGTTTTTTTGTTCTGGGTGGCTGAGGATCGATC [AMX(398)_C1]  11.4 s
21. TCCCTTGTCGATTCTGGTATGTTTTGGTCCGGGTGGCTGAGGATCGATC [AMX(398)_D7]  11.4 s
22. TCCCTGGAGATCCGGGGTAGTATACTGGTTTGGGTGGCTGAGGATCGATC [AMX(398)_A12]  12 s
23. TCCCGATCGCTGTCCTAGGATGGGTAGGGTGGTGGCTGAGGATCGATC [AMX(399)_D2]  12.5 s
24. TCCCAGAGAGCCGGGGTATAATTGTGGTGTGGGTGGCTGAGGATCGATC [AMX(399)_D11]  13.2 s
25. TCCCGGATCCTCGTGGGTATTGTTGGGTTGGGTGGCTGAGGATCGATC [AMX(399)_G12]  13.4 s

same assay, conditions: PT at 10 uM, parent 300 s; protein in an extract; single-stranded DNA

In order of rising functional effect of the aptamer:
1. GGCGATACTGCTTCGCAGGGTGGTGGCTGAGGATCGCC [Minimer 12]  10.3 s
2. GGTAGGGTGGTGG [Minimer 4]  11.4 s
3. ACTGCCTAGGTTGGGTAGGGTGGT [Minimer 6]  12.2 s

same assay, conditions: PT at 10 uM, parent 300 s; protein in an extract; single-stranded DNA; variant of AMX(398)_C8 (ARC2027)

In order of rising functional effect of the aptamer:
1. GGCGATACTGCCTTTGGTAGGGTGGTGGCTGAGGATCGCC [Minimer 8]  10.1 s
2. GGCGATACTGCCCAGGTTGGGCAGGGTGGTGGCTGAGGATCGCC [Minimer 9]  10.6 s
3. GGCCGATCAGGCTGCTGAGGATCGGCC [Minimer 10]  11 s

same assay, conditions: PT at 10 uM; name printed AMX(453)_38; protein in an extract; single-stranded DNA

“TCCTATGATCGAATGACTAAGGGGTGGGGTGGGTGGCTGAGGATCGATC [AMX(453)_E8]” gave a functional effect of the aptamer of 13.1 s.

same assay, conditions: PT at 10 uM; protein in an extract; single-stranded DNA

In order of rising functional effect of the aptamer:
1. ACTGCCTAGGTTGGGTAGTGTGGTGGCAGT [ARC2169.3]  11 s
2. TCCCATCGATTTGGGGTAGTTCTATTGGGTTGGGTGGCTGAGGATCGATC [AMX(454)_D6]  11.4 s
3. CCCTTGGTATTGTTGGTCTGGGTGGCTGAGCGG [Minimer 1]  11.5 s
4. TCCCTGTTGTTCCGGGGTGGTTTAATGGTTTGGGTGGCTGAGGATCGATC [AMX(454)_H6]  11.5 s
5. TCCCGGGTCGTATCCGTTTGTGGGTGGTCTGGGTGGCTGAGGATCGATC [AMX(453)_E10]  11.8 s
6. TCCCATCGAGCCGGGGTATGATTATGGGTGGGGTGGCTGAGGATCGATC [AMX(453)_B8]  11.9 s
7. TCCCTCGATCCGGGGTGTCTTTCGTGGGCTGGGTGGCTGAGGATCGATC [AMX(454)_D12]  12 s
8. TCCCATTAGGTCCGTATACTGGTGAGGTTGGGTGGCTGAGGATCGATC [AMX(454)_H7]  12.1 s
9. TCCCGGATCGTTTTGCTTCAAAGGTTGGGTTGGGTGGCTGAGGATCGATC [AMX(454)_B7]  12.2 s
10. TCCCGTAATTGAGCCTGGTATTGTTGGTCTGGGTGGCTGAGGATCGATC [AMX(453)_E12]  12.2 s
11. TCCCGTATCGAGCTTGGTATTGTTGGTCTGGGTGGCTGAGGATCGATC [AMX(453)_G11]  12.2 s
12. TCCCTATGGATTCGGGGTACGTTAGTGGTCTGGGTGGCTGAGGATCGATC [AMX(454)_G6]  12.5 s
13. TCCCGATTGATCTGAGGGGTATTGTTGGCGTGGGTGGCTGAGGATCGATC [AMX(453)_D12]  12.7 s
14. TCCCTCGATCTAAGGTGTTTATTATGGTGTGGGTGGCTGAGGATCGATC [AMX(454)_F7]  12.7 s
15. ACTGCCTAGGTTGGGTAGGGCGGTGGCAGT [ARC2169.5]  12.8 s
16. TCCCGATCGGTCTGGGGTGTGTTCATGGTTTGGGTGGCTGAGGATCGATC [AMX(453)_B12]  12.8 s
17. TCCCATCGATTCGGGGTTTTTTAGTGGTATGGGTGGCTGAGGATCGATC [AMX(454)_D5]  13 s
18. TCCCGATCGTTCCGTGGGGTAGTGTTGGTTGGGGTGGCTGAGGATCGATC [AMX(454)_G2]  15.6 s
19. TCCCTTTTGACCTGCAAGAACGGTTGGTGTGGGTGGCTGAGGATCGATC [AMX(453)_H11]  15.6 s
20. TCCCGTAATCGAGTCTGGTATTGTTGGTCTGGGTGGCTGAGGATCGATC [AMX(453)_E4]  15.9 s

same assay, conditions: PT at 10 uM; protein in an extract; single-stranded DNA; variant of AMX(398)_A4

Work on “CCGCCTGGTATTGTTGGTCTGGGTGGCTGAGGCGG [Minimer 2]” yielded a functional effect of the aptamer of 12.2 s.

For some of these results: No signal at the amounts used counts as a negative.
